# Taken from: PubChem BioAssay AID602196 (INSERM, 2012)
# Test: 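Modifiers of cisplatin sensitivity in A549 cells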
# System: human A549 lung cancer cells
# Reagent: siRNA pair against human genes
# Duration: 48 h transfection before cisplatin; time from cisplatin to read-out not stated
# Treatment: cisplatin at a dose killing half of control-siRNA cells; exact dose and duration not given
# Measured: 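Shift in cisplatin death relative to control siRNA, from -50 (all cells die) to +50 (no cells die); siRNAs harmful on their own scored 0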
# Scale: two-siRNA summed score (-2 to +2): higher = both siRNAs protect from cisplatin killing; -2 means both sensitise; mean protection from cisplatin (shift in death): higher = protection from cisplatin killing
# Active means: 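Each siRNA scores 0 if harmful alone by LDH or WST-1, otherwise +1 if it reduces and -1 if it increases cisplatin killing; a gene is active when both siRNAs agree (sum +2 or -2)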
# Calls: active = both siRNAs shift cisplatin killing the same way; inactive = no consistent shift, or siRNA harmful alone
# In all, the deposit lists about 23,000 reagents; shown is a part drawn at random. 455 of them (2%) count as active. 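Active includes both protection and sensitisation; some change values fall well beyond the stated -50 to +50 range.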 Further read-outs or replicates are left out here. No sequences are given here. Not given: the amount of reagent.
target,two-siRNA summed score (-2 to +2),mean protection from cisplatin (shift in death) (%),call
IRF2BP2,1,6.9,inactive
ANGPTL4,0,0.9,inactive
TTC21A,-1,-5,inactive
ADCY5,0,7.9,inactive
LINC01115,0,12.2,inactive
MPC2,1,8.6,inactive
ADAM10,0,-3.3,inactive
OR9Q2,0,9.7,inactive
SFRP4,0,9.2,inactive
IFNG,-2,-21.1,active
CFHR5,0,-0.3,inactive
GZMA,0,-9,inactive
LOC440843,0,15.5,inactive
PTPN7,-2,-18.1,active
LOC442748,1,5.4,inactive
LOC441874,0,7.9,inactive
RBM43,0,11.1,inactive
LOC388551,0,6.9,inactive
LOC402537,0,6.5,inactive

Called active (from the list above):
target,two-siRNA summed score (-2 to +2),mean protection from cisplatin (shift in death) (%),call
IFNG,-2,-21.1,active
PTPN7,-2,-18.1,active

Additional results:
target,two-siRNA summed score (-2 to +2),mean protection from cisplatin (shift in death) (%),call
LOC389087,0,-2.6,inactive
ANK1,1,8.7,inactive
FBXL15,0,0,inactive
TLE6,0,-3.6,inactive
FAM114A1,0,-12,inactive
C19orf25,0,-1.4,inactive
CXXC4,0,16.9,inactive
LOC440706,1,16,inactive
CNOT10,-1,-2,inactive
EPAS1,1,12,inactive
SULT4A1,1,10,inactive
DNAJC7,-1,-4,inactive
LOC400942,0,13.1,inactive
TICAM1,0,-0.6,inactive
LST1,0,14.4,inactive
OR51G1,0,8.7,inactive
CD1A,0,17,inactive
TXNL4A,-1,-7.5,inactive
TBC1D21,0,1.1,inactive
DDX17,0,1.4,inactive
